Measurements as given in article PMC10298649.
These are yes or no findings as the source states them, for the method shown. In cells and extracts the contact can be indirect. Binding calls can cover weak binding; strength is not graded here. Sequences can lack the tags named with a protein.

By UniProt entry, the sequences of proteins in these tests, tags left out. Where a name states a change or a piece, a line headed by the entry shows the natural chain unless it says otherwise.
UniProt Q9SGT7: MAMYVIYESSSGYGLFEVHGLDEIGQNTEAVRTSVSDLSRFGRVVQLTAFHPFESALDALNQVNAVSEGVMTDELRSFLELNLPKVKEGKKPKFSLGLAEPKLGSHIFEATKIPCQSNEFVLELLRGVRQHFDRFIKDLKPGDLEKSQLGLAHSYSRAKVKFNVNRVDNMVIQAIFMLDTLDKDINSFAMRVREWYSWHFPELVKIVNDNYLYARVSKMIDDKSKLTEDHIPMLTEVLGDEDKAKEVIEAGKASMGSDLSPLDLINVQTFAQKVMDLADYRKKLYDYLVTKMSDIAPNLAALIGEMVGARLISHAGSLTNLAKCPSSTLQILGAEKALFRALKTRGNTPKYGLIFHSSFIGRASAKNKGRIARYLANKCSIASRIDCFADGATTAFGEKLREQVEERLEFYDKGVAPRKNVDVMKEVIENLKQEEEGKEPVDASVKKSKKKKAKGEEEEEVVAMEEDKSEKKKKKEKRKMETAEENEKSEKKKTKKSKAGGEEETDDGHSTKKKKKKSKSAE

T1: FIB2 fused to cYFP (Arabidopsis thaliana) (UniProt Q94AH9)
T1 sequence: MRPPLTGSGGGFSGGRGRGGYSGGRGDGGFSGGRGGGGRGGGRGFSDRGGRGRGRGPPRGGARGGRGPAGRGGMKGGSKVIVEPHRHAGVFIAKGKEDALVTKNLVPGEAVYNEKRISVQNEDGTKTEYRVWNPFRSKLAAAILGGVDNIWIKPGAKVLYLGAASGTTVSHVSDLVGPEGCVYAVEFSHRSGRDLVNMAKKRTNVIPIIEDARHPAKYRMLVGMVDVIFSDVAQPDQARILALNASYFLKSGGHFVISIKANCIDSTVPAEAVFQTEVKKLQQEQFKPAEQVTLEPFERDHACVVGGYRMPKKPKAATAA


Legend:
[1] = molecular target: T1, FIB2 fused to cYFP (Arabidopsis thaliana); assay: split reporter; BiFC in Arabidopsis mesophyll protoplasts; nYFP and cYFP fusions from pBiFCt-2in1-NN, PEG transformation; YFP signal by confocal microscopy after 16 h to 24 h in the dark (legend: 24 h at 25 °C); RFP as internal marker for transformation
[2] = molecular target: NOP56 fused to cYFP (Arabidopsis thaliana) (UniProt Q9SGT7); assay: as above

Row | binding [1] | binding [2] | Molecule
1 | binds |  | HD2A fused to nYFP (Arabidopsis thaliana)
2 |  | binds | HD2B fused to nYFP (protein, UniProt Q56WH4 1-306) MEFWGVAVTPKNATKVTPEEDSLVHISQASLDCTVKSGESVVLSVTVGGAKLVIGTLSQDKFPQISFDLVFDKEFELSHSGTKANVHFIGYKSPNIEQDDFTSSDDEDVPEAVPAPAPTAVTANGNAGAAVVKADTKPKAKPAEVKPAEEKPESDEEDESDDEDESEEDDDSEKGMDVDEDDSDDDEEEDSEDEEEEETPKKPEPINKKRPNESVSKTPVSGKKAKPAAAPASTPQKTEEKKKGGHTATPHPAKKGGKSPVNANQSPKSGGQSSGGNNNKKPFNSGKQFGGSNNKGSNKGKGKGRA
